Test results: PMC9501056
No constants are given. Whether binding was seen depends on the method and setting. Binding seen in cells or lysates may run through a third protein. Some results given as binding are weak or reduced against the parent protein; the word gives no strength.

T1: BEI (Oryza sativa subsp. indica cv. IR36 (endogenous in developing seeds)) (UniProt Q01401)
T1 sequence: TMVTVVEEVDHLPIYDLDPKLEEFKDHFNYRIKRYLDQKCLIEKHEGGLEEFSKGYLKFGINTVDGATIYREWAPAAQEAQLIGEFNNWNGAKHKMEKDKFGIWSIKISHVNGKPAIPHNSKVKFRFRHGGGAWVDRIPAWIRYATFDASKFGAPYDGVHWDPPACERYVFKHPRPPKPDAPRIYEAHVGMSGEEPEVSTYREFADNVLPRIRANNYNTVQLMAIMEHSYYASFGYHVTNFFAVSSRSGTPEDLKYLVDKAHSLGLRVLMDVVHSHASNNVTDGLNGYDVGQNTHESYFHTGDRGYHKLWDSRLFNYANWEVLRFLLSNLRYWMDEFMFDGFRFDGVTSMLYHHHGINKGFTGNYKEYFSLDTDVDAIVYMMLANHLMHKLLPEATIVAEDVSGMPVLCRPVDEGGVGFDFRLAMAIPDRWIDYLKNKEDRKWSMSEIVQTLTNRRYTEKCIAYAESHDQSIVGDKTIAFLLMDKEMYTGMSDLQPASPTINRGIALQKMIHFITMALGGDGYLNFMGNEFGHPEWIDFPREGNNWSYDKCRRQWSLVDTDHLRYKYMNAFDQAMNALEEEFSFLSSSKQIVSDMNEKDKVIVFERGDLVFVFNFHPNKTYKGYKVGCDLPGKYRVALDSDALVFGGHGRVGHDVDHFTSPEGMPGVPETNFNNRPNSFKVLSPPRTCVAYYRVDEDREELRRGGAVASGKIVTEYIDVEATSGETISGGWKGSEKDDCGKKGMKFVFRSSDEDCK

T2: SSIIa (Oryza sativa subsp. indica cv. IR36 (endogenous in developing seeds)) (UniProt P0C586)
T2 sequence: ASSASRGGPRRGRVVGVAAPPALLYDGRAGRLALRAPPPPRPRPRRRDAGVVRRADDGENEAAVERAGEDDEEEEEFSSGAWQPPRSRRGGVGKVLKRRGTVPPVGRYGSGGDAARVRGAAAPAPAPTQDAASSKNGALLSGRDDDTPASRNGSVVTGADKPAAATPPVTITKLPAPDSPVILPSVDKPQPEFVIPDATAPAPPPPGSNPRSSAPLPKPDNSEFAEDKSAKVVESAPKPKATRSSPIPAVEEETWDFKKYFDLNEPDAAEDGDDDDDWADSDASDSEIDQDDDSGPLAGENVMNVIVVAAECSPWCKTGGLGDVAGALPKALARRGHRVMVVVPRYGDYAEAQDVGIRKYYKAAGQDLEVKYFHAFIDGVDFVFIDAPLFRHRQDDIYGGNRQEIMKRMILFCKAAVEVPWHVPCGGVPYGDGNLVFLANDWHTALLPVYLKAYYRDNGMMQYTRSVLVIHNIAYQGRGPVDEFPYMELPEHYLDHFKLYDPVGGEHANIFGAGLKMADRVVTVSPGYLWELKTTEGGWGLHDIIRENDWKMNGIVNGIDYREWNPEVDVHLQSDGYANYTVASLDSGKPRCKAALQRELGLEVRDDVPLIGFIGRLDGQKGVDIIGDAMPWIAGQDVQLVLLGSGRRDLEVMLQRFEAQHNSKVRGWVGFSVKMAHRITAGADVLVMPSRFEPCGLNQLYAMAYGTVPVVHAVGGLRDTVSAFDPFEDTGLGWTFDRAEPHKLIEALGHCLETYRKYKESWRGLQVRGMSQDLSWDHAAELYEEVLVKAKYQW


Columns and labels:
[1] = target: T1, BEI (Oryza sativa subsp. indica cv. IR36 (endogenous in developing seeds)); experiment: co-IP; soluble proteins of developing seeds of the be2b mutant at 5 DAF incubated with isozyme-specific antibodies and protein A magnetic beads; washed with PBS pH 7.4; Western blotting
[2] = target: T1, BEI (Oryza sativa subsp. indica cv. IR36 (endogenous in developing seeds)); experiment: co-IP; soluble proteins of developing seeds of WT (IR36) at 15 DAF incubated with isozyme-specific antibodies and protein A magnetic beads; washed with PBS pH 7.4; Western blotting
[3] = substrate: T3, SSI (Oryza sativa subsp. indica cv. IR36 (endogenous in developing seeds)) (UniProt A2Y9M4); experiment: as above
T3 sequence: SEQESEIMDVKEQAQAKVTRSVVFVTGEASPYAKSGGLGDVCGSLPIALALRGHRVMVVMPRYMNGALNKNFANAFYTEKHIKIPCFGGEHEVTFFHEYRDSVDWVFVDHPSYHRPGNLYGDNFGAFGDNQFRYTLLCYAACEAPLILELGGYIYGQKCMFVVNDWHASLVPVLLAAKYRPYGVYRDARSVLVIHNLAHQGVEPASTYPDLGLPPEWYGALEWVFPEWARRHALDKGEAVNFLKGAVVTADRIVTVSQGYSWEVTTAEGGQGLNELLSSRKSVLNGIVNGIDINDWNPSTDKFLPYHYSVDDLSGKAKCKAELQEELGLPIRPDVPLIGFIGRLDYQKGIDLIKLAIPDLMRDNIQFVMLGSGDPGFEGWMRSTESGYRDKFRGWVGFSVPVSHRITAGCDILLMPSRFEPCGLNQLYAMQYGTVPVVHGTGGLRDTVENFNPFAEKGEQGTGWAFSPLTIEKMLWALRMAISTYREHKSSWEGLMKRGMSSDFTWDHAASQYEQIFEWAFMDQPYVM

[4] = substrate: T3, ; experiment: co-IP; soluble proteins of developing seeds of WT (IR36) at 10 DAF incubated with isozyme-specific antibodies and protein A magnetic beads; washed with PBS pH 7.4; Western blotting
[5] = target: T1, BEI (Oryza sativa subsp. indica cv. IR36 (endogenous in developing seeds)); experiment: as above
[6] = target: T1, BEI (Oryza sativa subsp. indica cv. IR36 (endogenous in developing seeds)); experiment: co-IP; soluble proteins of developing seeds of WT (IR36) at 5 DAF incubated with isozyme-specific antibodies and protein A magnetic beads; washed with PBS pH 7.4; Western blotting
[7] = substrate: T3, ; experiment: co-IP; soluble proteins of developing seeds of the be2b mutant at 15 DAF incubated with isozyme-specific antibodies and protein A magnetic beads; washed with PBS pH 7.4; Western blotting
[8] = target: T2, SSIIa (Oryza sativa subsp. indica cv. IR36 (endogenous in developing seeds)); experiment: co-IP; soluble proteins of developing seeds of WT (IR36) at 15 DAF incubated with isozyme-specific antibodies and protein A magnetic beads; washed with PBS pH 7.4; Western blotting
[9] = target: T2, SSIIa (Oryza sativa subsp. indica cv. IR36 (endogenous in developing seeds)); experiment: co-IP; soluble proteins of developing seeds of the be2b mutant at 15 DAF incubated with isozyme-specific antibodies and protein A magnetic beads; washed with PBS pH 7.4; Western blotting
[10] = target: T2, SSIIa (Oryza sativa subsp. indica cv. IR36 (endogenous in developing seeds)); experiment: co-IP; soluble proteins of developing seeds of the be2b mutant at 5 DAF incubated with isozyme-specific antibodies and protein A magnetic beads; washed with PBS pH 7.4; Western blotting
[11] = target: T2, SSIIa (Oryza sativa subsp. indica cv. IR36 (endogenous in developing seeds)); experiment: co-IP; soluble proteins of developing seeds of WT (IR36) at 10 DAF incubated with isozyme-specific antibodies and protein A magnetic beads; washed with PBS pH 7.4; Western blotting
[12] = target: T1, BEI (Oryza sativa subsp. indica cv. IR36 (endogenous in developing seeds)); experiment: co-IP; soluble proteins of developing seeds of the be2b mutant at 15 DAF incubated with isozyme-specific antibodies and protein A magnetic beads; washed with PBS pH 7.4; Western blotting
[13] = target: T2, SSIIa (Oryza sativa subsp. indica cv. IR36 (endogenous in developing seeds)); experiment: co-IP; soluble proteins of developing seeds of WT (IR36) at 5 DAF incubated with isozyme-specific antibodies and protein A magnetic beads; washed with PBS pH 7.4; Western blotting
[14] = target: T1, BEI (Oryza sativa subsp. indica cv. IR36 (endogenous in developing seeds)); experiment: co-IP; soluble proteins of developing seeds of the be2b mutant at 10 DAF incubated with isozyme-specific antibodies and protein A magnetic beads; washed with PBS pH 7.4; Western blotting

| binding [1] | binding [2] | binding [3] | binding [4] | binding [5] | binding [6] | binding [7] | binding [8] | binding [9] | binding [10] | binding [11] | binding [12] | binding [13] | binding [14] | Binder |
| --- | --- | --- | --- | --- | --- | --- | --- | --- | --- | --- | --- | --- | --- | --- |
| binds weakly | binds weakly | binds | binds weakly | binds | binds |  |  |  |  |  |  |  |  | SSIIa (enzyme, UniProt P0C586 17-810) ASSASRGGPRRGRVVGVAAPPALLYDGRAGRLALRAPPPPRPRPRRRDAGVVRRADDGENEAAVERAGEDDEEEEEFSSGAWQPPRSRRGGVGKVLKRRGTVPPVGRYGSGGDAARVRGAAAPAPAPTQDAASSKNGALLSGRDDDTPASRNGSVVTGADKPAAATPPVTITKLPAPDSPVILPSVDKPQPEFVIPDATAPAPPPPGSNPRSSAPLPKPDNSEFAEDKSAKVVESAPKPKATRSSPIPAVEEETWDFKKYFDLNEPDAAEDGDDDDDWADSDASDSEIDQDDDSGPLAGENVMNVIVVAAECSPWCKTGGLGDVAGALPKALARRGHRVMVVVPRYGDYAEAQDVGIRKYYKAAGQDLEVKYFHAFIDGVDFVFIDAPLFRHRQDDIYGGNRQEIMKRMILFCKAAVEVPWHVPCGGVPYGDGNLVFLANDWHTALLPVYLKAYYRDNGMMQYTRSVLVIHNIAYQGRGPVDEFPYMELPEHYLDHFKLYDPVGGEHANIFGAGLKMADRVVTVSPGYLWELKTTEGGWGLHDIIRENDWKMNGIVNGIDYREWNPEVDVHLQSDGYANYTVASLDSGKPRCKAALQRELGLEVRDDVPLIGFIGRLDGQKGVDIIGDAMPWIAGQDVQLVLLGSGRRDLEVMLQRFEAQHNSKVRGWVGFSVKMAHRITAGADVLVMPSRFEPCGLNQLYAMAYGTVPVVHAVGGLRDTVSAFDPFEDTGLGWTFDRAEPHKLIEALGHCLETYRKYKESWRGLQVRGMSQDLSWDHAAELYEEVLVKAKYQW |
|  |  | binds |  |  |  | binds | binds weakly | binds weakly |  |  |  |  |  | BEI (enzyme, UniProt Q01401 65-820) TMVTVVEEVDHLPIYDLDPKLEEFKDHFNYRIKRYLDQKCLIEKHEGGLEEFSKGYLKFGINTVDGATIYREWAPAAQEAQLIGEFNNWNGAKHKMEKDKFGIWSIKISHVNGKPAIPHNSKVKFRFRHGGGAWVDRIPAWIRYATFDASKFGAPYDGVHWDPPACERYVFKHPRPPKPDAPRIYEAHVGMSGEEPEVSTYREFADNVLPRIRANNYNTVQLMAIMEHSYYASFGYHVTNFFAVSSRSGTPEDLKYLVDKAHSLGLRVLMDVVHSHASNNVTDGLNGYDVGQNTHESYFHTGDRGYHKLWDSRLFNYANWEVLRFLLSNLRYWMDEFMFDGFRFDGVTSMLYHHHGINKGFTGNYKEYFSLDTDVDAIVYMMLANHLMHKLLPEATIVAEDVSGMPVLCRPVDEGGVGFDFRLAMAIPDRWIDYLKNKEDRKWSMSEIVQTLTNRRYTEKCIAYAESHDQSIVGDKTIAFLLMDKEMYTGMSDLQPASPTINRGIALQKMIHFITMALGGDGYLNFMGNEFGHPEWIDFPREGNNWSYDKCRRQWSLVDTDHLRYKYMNAFDQAMNALEEEFSFLSSSKQIVSDMNEKDKVIVFERGDLVFVFNFHPNKTYKGYKVGCDLPGKYRVALDSDALVFGGHGRVGHDVDHFTSPEGMPGVPETNFNNRPNSFKVLSPPRTCVAYYRVDEDREELRRGGAVASGKIVTEYIDVEATSGETISGGWKGSEKDDCGKKGMKFVFRSSDEDCK |
|  | binds |  |  | binds | binds |  | binds |  | binds | binds weakly | binds | binds weakly | binds | SSI (enzyme, UniProt A2Y9M4 114-641) SEQESEIMDVKEQAQAKVTRSVVFVTGEASPYAKSGGLGDVCGSLPIALALRGHRVMVVMPRYMNGALNKNFANAFYTEKHIKIPCFGGEHEVTFFHEYRDSVDWVFVDHPSYHRPGNLYGDNFGAFGDNQFRYTLLCYAACEAPLILELGGYIYGQKCMFVVNDWHASLVPVLLAAKYRPYGVYRDARSVLVIHNLAHQGVEPASTYPDLGLPPEWYGALEWVFPEWARRHALDKGEAVNFLKGAVVTADRIVTVSQGYSWEVTTAEGGQGLNELLSSRKSVLNGIVNGIDINDWNPSTDKFLPYHYSVDDLSGKAKCKAELQEELGLPIRPDVPLIGFIGRLDYQKGIDLIKLAIPDLMRDNIQFVMLGSGDPGFEGWMRSTESGYRDKFRGWVGFSVPVSHRITAGCDILLMPSRFEPCGLNQLYAMQYGTVPVVHGTGGLRDTVENFNPFAEKGEQGTGWAFSPLTIEKMLWALRMAISTYREHKSSWEGLMKRGMSSDFTWDHAASQYEQIFEWAFMDQPYVM |
